Laboratory results from patent US8933235B2, “Pyridinedione carboxamide inhibitors of endothelial lipase” (Bristol-Myers Squibb Company, priority 2011, dated 2015).
Some of these results come from one statement about several compounds together.

Target: T1, endothelial lipase (EL) (Homo sapiens, UniProt Q9Y5X9)
T1 construct: Conditioned media obtained from HT-1080 cells, which were transformed by RAGE technology (Athersys) to overexpress endogenous EL; endogenous in cells; conditioned medium used as the enzyme source
T1 sequence (Q9Y5X9 21-500): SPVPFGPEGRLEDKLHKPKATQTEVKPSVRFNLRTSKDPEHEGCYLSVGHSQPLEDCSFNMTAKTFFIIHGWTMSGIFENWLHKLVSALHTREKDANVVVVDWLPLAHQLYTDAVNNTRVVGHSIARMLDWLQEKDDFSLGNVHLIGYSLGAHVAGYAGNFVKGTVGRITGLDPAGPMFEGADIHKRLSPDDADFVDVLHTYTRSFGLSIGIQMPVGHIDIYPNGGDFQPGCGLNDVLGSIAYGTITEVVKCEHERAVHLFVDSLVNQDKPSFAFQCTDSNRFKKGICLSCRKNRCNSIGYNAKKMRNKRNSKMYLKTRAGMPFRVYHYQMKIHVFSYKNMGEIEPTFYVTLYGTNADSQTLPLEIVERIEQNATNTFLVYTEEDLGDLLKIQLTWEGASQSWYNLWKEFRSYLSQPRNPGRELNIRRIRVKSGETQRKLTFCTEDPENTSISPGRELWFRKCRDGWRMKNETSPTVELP
Assay: Endothelial lipase (EL) enzymatic assay with fluorescent substrate A10070 in DMPG vesicles
Assay type: biochemical
Conditions: result in words

Row | Compound | EL inhibitory activity
1 | CC(C)c1cc(C(=O)NCCCc2ccc(Cl)c(Cl)c2)c(O)c(=O)n1C [Example 103, N-(3-(3,4-dichlorophenyl)propyl)-3-hydroxy-6-isopropyl-1-methyl-2-oxo-1,2-dihydropyridine-4-carboxamide] | found having EL inhibitory activity
2 | Cn1c(-c2ccc(C(F)(F)F)cc2)cc(C(=O)NCCCc2ccc(Cl)c(Cl)c2)c(O)c1=O [Example 5, N-(3-(3,4-dichlorophenyl)propyl)-3-hydroxy-1-methyl-2-oxo-6-(4-(trifluoromethyl)phenyl)-1,2-dihydropyridine-4-carboxamide] | found having EL inhibitory activity
3 | Cn1c(-c2ccc3ncccc3c2)cc(C(=O)NCCCc2ccc(Cl)c(Cl)c2)c(O)c1=O [Example 20, N-(3-(3,4-dichlorophenyl)propyl)-3-hydroxy-1-methyl-2-oxo-6-(quinolin-6-yl)-1,2-dihydropyridine-4-carboxamide] | found having EL inhibitory activity
4 | Cn1c(-c2cc(F)cc(C(F)(F)F)c2)cc(C(=O)NCCOc2ccccc2)c(O)c1=O [Example 58, 6-(3-fluoro-5-(trifluoromethyl)phenyl)-3-hydroxy-1-methyl-2-oxo-N-(2-phenoxyethyl)-1,2-dihydropyridine-4-carboxamide] | found having EL inhibitory activity
5 | Cn1c(C(F)(F)F)cc(C(=O)NCCCOc2ccc(C(F)(F)F)cc2)c(O)c1=O [Example 95, 3-hydroxy-1-methyl-2-oxo-6-(trifluoromethyl)-N-(3-(4-(trifluoromethyl)phenoxy)propyl)-1,2-dihydropyridine-4-carboxamide] | found having EL inhibitory activity
6 | CC(CCc1ccc(Cl)c(Cl)c1)NC(=O)c1cc(-c2cccc(C(F)(F)F)c2)n(C)c(=O)c1O (single isomer, unassigned; isomer a) [Example 78, N-(4-(3,4-dichlorophenyl)butan-2-yl)-3-hydroxy-1-methyl-2-oxo-6-(3-(trifluoromethyl)phenyl)-1,2-dihydropyridine-4-carboxamide (Isomer A)] | found having EL inhibitory activity
7 | COc1c(C(=O)NCCCc2ccc(Cl)c(Cl)c2)ccn(C)c1=O [Example 113, N-(3-(3,4-dichlorophenyl)propyl)-3-methoxy-1-methyl-2-oxo-1,2-dihydropyridine-4-carboxamide] | found having EL inhibitory activity
8 | Cn1ccc(C(=O)NCCCOc2ccc(F)cc2)c(O)c1=O [Example 140, N-(3-(4-fluorophenoxy)propyl)-3-hydroxy-1-methyl-2-oxo-1,2-dihydropyridine-4-carboxamide] | found having EL inhibitory activity
9 | CC(C)Cn1ccc(C(=O)NCCCOc2ccc(Cl)cc2)c(O)c1=O [Example 163, N-(3-(4-chlorophenoxy)propyl)-3-hydroxy-1-isobutyl-2-oxo-1,2-dihydropyridine-4-carboxamide] | found having EL inhibitory activity
10 | Cn1c(-c2cc(F)cc(C(F)(F)F)c2)cc(C(=O)NCCc2c(Cl)cccc2Cl)c(O)c1=O [Example 59, N-(2,6-dichlorophenethyl)-6-(3-fluoro-5-(trifluoromethyl)phenyl)-3-hydroxy-1-methyl-2-oxo-1,2-dihydropyridine-4-carboxamide] | found having EL inhibitory activity
11 | Cn1c(-c2cc(F)cc(C(F)(F)F)c2)cc(C(=O)NCCCCOc2ccccc2)c(O)c1=O [Example 55, 6-(3-fluoro-5-(trifluoromethyl)phenyl)-3-hydroxy-1-methyl-2-oxo-N-(4-phenoxybutyl)-1,2-dihydropyridine-4-carboxamide] | found having EL inhibitory activity
12 | O=C(NCCCc1ccccc1C(F)(F)F)c1ccn(CC2CC2)c(=O)c1O [Example 167, 1-(cyclopropylmethyl)-3-hydroxy-2-oxo-N-(3-(2-(trifluoromethyl)phenyl)propyl)-1,2-dihydropyridine-4-carboxamide] | found having EL inhibitory activity
13 | Cn1c(-c2cc(F)cc(F)c2)cc(C(=O)NCCCc2ccc(Cl)c(Cl)c2)c(O)c1=O [Example 19, N-(3-(3,4-dichlorophenyl)propyl)-6-(3,5-difluorophenyl)-3-hydroxy-1-methyl-2-oxo-1,2-dihydropyridine-4-carboxamide] | found having EL inhibitory activity
14 | Cn1c(C(F)(F)F)cc(C(=O)NCCCOc2ccccc2Cl)c(O)c1=O [Example 88, N-(3-(2-chlorophenoxy)propyl)-3-hydroxy-1-methyl-2-oxo-6-(trifluoromethyl)-1,2-dihydropyridine-4-carboxamide] | found having EL inhibitory activity
15 | Cn1c(-c2cccc3ncccc23)cc(C(=O)NCCCc2ccc(Cl)c(Cl)c2)c(O)c1=O [Example 29, N-(3-(3,4-dichlorophenyl)propyl)-3-hydroxy-1-methyl-2-oxo-6-(quinolin-5-yl)-1,2-dihydropyridine-4-carboxamide] | found having EL inhibitory activity
16 | Cn1c(-c2ccc(O)cc2)cc(C(=O)NCCCc2ccc(Cl)c(Cl)c2)c(O)c1=O [Example 6, N-(3-(3,4-dichlorophenyl)propyl)-3-hydroxy-6-(4-hydroxyphenyl)-1-methyl-2-oxo-1,2-dihydropyridine-4-carboxamide] | found having EL inhibitory activity
17 | CN(C)c1cccc(-c2cc(C(=O)NCCCc3ccc(Cl)c(Cl)c3)c(O)c(=O)n2C)c1 [Example 44, N-(3-(3,4-dichlorophenyl)propyl)-6-(3-(dimethylamino)phenyl)-3-hydroxy-1-methyl-2-oxo-1,2-dihydropyridine-4-carboxamide] | found having EL inhibitory activity
18 | Cn1c(-c2cnc3ccccc3c2)cc(C(=O)NCCCc2ccc(Cl)c(Cl)c2)c(O)c1=O [Example 40, N-(3-(3,4-dichlorophenyl)propyl)-3-hydroxy-1-methyl-2-oxo-6-(quinolin-3-yl)-1,2-dihydropyridine-4-carboxamide] | found having EL inhibitory activity
19 | Cn1c(-c2ccc3ccccc3c2)cc(C(=O)NCCCc2ccc(Cl)c(Cl)c2)c(O)c1=O [Example 42, N-(3-(3,4-dichlorophenyl)propyl)-3-hydroxy-1-methyl-6-(naphthalen-2-yl)-2-oxo-1,2-dihydropyridine-4-carboxamide] | found having EL inhibitory activity
20 | CCOC(=O)Cn1ccc(C(=O)NCCCc2ccc(Cl)c(Cl)c2)c(O)c1=O [Example 178, ethyl 2-(4-(3-(3,4-dichlorophenyl)propylcarbamoyl)-3-hydroxy-2-oxopyridin-1(2H)-yl)acetate] | found having EL inhibitory activity
21 | Cn1c(-c2cc(F)cc(C(F)(F)F)c2)cc(C(=O)NCCc2ccccc2Cl)c(O)c1=O [Example 52, N-(2-chlorophenethyl)-6-(3-fluoro-5-(trifluoromethyl)phenyl)-3-hydroxy-1-methyl-2-oxo-1,2-dihydropyridine-4-carboxamide] | found having EL inhibitory activity
22 | Cc1cc(C(=O)NCCCc2ccc(Cl)c(Cl)c2)c(O)c(=O)n1C [Example 105, N-(3-(3,4-dichlorophenyl)propyl)-3-hydroxy-1,6-dimethyl-2-oxo-1,2-dihydropyridine-4-carboxamide] | found having EL inhibitory activity
23 | Cn1c(C(F)(F)F)cc(C(=O)NCCCOc2cccc(Cl)c2)c(O)c1=O [Example 91, N-(3-(3-chlorophenoxy)propyl)-3-hydroxy-1-methyl-2-oxo-6-(trifluoromethyl)-1,2-dihydropyridine-4-carboxamide] | found having EL inhibitory activity
24 | Cn1c(-c2ccc3c(ccn3C)c2)cc(C(=O)NCCCc2ccc(Cl)c(Cl)c2)c(O)c1=O [Example 31, N-(3-(3,4-dichlorophenyl)propyl)-3-hydroxy-1-methyl-6-(1-methyl-1H-indol-5-yl)-2-oxo-1,2-dihydropyridine-4-carboxamide] | found having EL inhibitory activity
25 | O=C(NCCCc1ccc(Cl)c(Cl)c1)c1cc[nH]c(=O)c1O [Example 208, N-(3-(3,4-dichlorophenyl)propyl)-3-hydroxy-2-oxo-1,2-dihydropyridine-4-carboxamide] | found having EL inhibitory activity
26 | Cn1ccc(C(=O)NCCCOc2ccc([N+](=O)[O-])cc2)c(O)c1=O [Example 202, 3-hydroxy-1-methyl-N-(3-(4-nitrophenoxy)propyl)-2-oxo-1,2-dihydropyridine-4-carboxamide] | found having EL inhibitory activity
27 | CC(CCCc1ccc(Cl)c(Cl)c1)NC(=O)c1ccn(C)c(=O)c1O (single isomer, unassigned) [Example 124, N-(5-(3,4-dichlorophenyl)pentan-2-yl)-3-hydroxy-1-methyl-2-oxo-1,2-dihydropyridine-4-carboxamide] | found having EL inhibitory activity
28 | Cn1c(-c2cc(F)cc(C(F)(F)F)c2)cc(C(=O)NCCCc2ccc(Cl)c(Cl)c2)c(N)c1=O [Example 193, 3-amino-N-(3-(3,4-dichlorophenyl)propyl)-6-(3-fluoro-5-(trifluoromethyl)phenyl)-1-methyl-2-oxo-1,2-dihydropyridine-4-carboxamide] | found having EL inhibitory activity
